Results as given in PubChem BioAssay AID493014 (National Center for Advancing Translational Sciences (NCATS), 2011).
Screen size: about 340,000 compounds; about 170 (0.05%) were called active. This list was built around the results that the source calls inconclusive (neither active nor inactive); the mix of calls is not that of the screen. The call rests on the fitted dose curve; in most records, active means well fitted inhibition curve with a large enough effect in the signal ratio, with a control signal flat (not every such curve was filed as active); inconclusive means small, poorly fitted or top-dose-only effect, or effect the other way, or a change in a side signal; inactive means flat fitted curve, though single readings scatter; the % refers to the signal ratio. Potencies of inconclusive entries are doubtful fits and often do not repeat.
Potency means the concentration at half of the fitted maximal effect.

Assay: qHTS Assay to Find Inhibitors of Chronic Active B-Cell Receptor Signaling;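 on activity change, negative = inhibition: plate controls were basal doxycycline-induced cells for no effect and cells given 10 µM MG132 for full effect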
Settings: ABC-DLBCL IkBa-CBG/CBR reporter, luminescence ratio (green luciferase fused to IkBa over red control in TMD8 lymphoma cells), 4 h; activity change, negative = inhibition: at 46.1 µM (top of the series) unless noted
In short: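 TMD8 human ABC-DLBCL cells with doxycycline-inducible IκBα–green luciferase fusion and unfused red luciferase, in 0.5% FBS medium; compounds up to 46 uM, 4 h at 37C. Green/red luminescence ratio, filter-overlap corrected, fitted to concentration-response curves.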
With `COc1ccc(C)cc1-n1c(=O)c2ccccc2c2ccccc2c1=O` the “activity change, negative = inhibition” value was inactive: -8.15%.
With `Cc1ccc(NC(=O)CSC2=NN3CCCC(=O)N=C3S2)cc1Cl` the “activity change, negative = inhibition” value was inactive: 1.74%.
In the case of `CCOC(=O)C1CCCN(CCC(=O)Nc2cc(C)cc(C)c2)C1` (stereo not drawn), the “activity change, negative = inhibition” value is reported as inactive: -12.6%.
With `CCC(=O)Nc1ccc2c(c1)ncn2-c1ccccc1OC` the activity change, negative = inhibition was inconclusive: -28.2%.
In the case of `CN(Cc1ccccc1)C(=O)CN1CCN(S(=O)(=O)c2ccc(Cl)c(Cl)c2)CC1`, the “activity change, negative = inhibition” value is reported as inactive: 12.7%.
In the case of `Cc1cc(C(=O)OCC(=O)Nc2ccc(F)cc2F)c(C)o1`, the activity change, negative = inhibition is reported as inconclusive: -18.8%.
With `O=C(CN1C=NS(=O)(=O)c2ccc(C(F)(F)F)cc21)Nc1cccc(C(F)(F)F)c1` the “activity change, negative = inhibition” value was inactive: -18.8%.
With `Cc1ccc(NC(=O)CCN2C(=O)NC(C)(C)C2=O)cc1F` the “activity change, negative = inhibition” value was inactive: 6.14%.
With `CCOc1ccc(NC(=O)CC2C(=O)N(C)C(=S)N2CCCc2ccccc2)cc1` (stereo not drawn) the activity change, negative = inhibition was inconclusive: -9.24%.
For `Cc1ccc2nc(-c3ccc(NC(=O)CN4CCN(c5ccccn5)CC4)cc3)sc2c1`, the activity change, negative = inhibition was inconclusive: 12.3%.
In the case of `CC(NC(=O)COC(=O)/C(=C/c1cccs1)c1cccs1)c1ccccc1` (stereo not drawn), the “activity change, negative = inhibition” value is reported as inactive: -7.6%.
With `CCc1ccccc1NC(=O)Nc1ccsc1C(=O)OC` the Potency was inconclusive: 35.5 µM [falling, single point].
With `COc1ccc2sc(/C=C/c3ccccc3O)[n+](C)c2c1` the “activity change, negative = inhibition” value was inactive: -4.18%.
With `COc1ccc(C(=O)NNC(=S)NC2CCCCC2)cc1OC` the Potency was inconclusive: 20 µM [falling, partial curve, poor fit].
For `COc1ccc(-c2cc(C(=O)OCC(=O)N3CCCC3)c3ccccc3n2)cc1`, the activity change, negative = inhibition was inconclusive: 7.24%.
With `CCOC(=O)C1CCC/C1=N\NC(=O)CN(c1cc(OC)ccc1OC)S(=O)(=O)c1ccccc1` (stereo not drawn) the activity change, negative = inhibition was inconclusive: 12.7%.
With `CN(Cc1ccccc1)C(=O)c1ccc(NC(=O)c2ccccc2)cc1` the activity change, negative = inhibition was inconclusive: 6.48%.
For `CC(C)(C)c1ccc(-n2nc(C(N)=O)c(O)cc2=O)cc1`, the “activity change, negative = inhibition” value was inactive: 4.57%.
With `N#CCC(=O)N/N=C/c1ccc(Cl)cc1` the activity change, negative = inhibition was inconclusive: -5.75%.
For `CCOc1ccccc1NC(=S)Nc1ncccc1C`, the “activity change, negative = inhibition” value was inactive: -11.2%.
In the case of `O=C(O)CSc1nc2ccccc2n1Cc1ccccc1`, the “activity change, negative = inhibition” value is reported as inactive: 0.823%.
With `O=C(NC(=S)N1CCCC(C(F)(F)F)C1)c1ccc(F)cc1` (stereo not drawn) the activity change, negative = inhibition was inconclusive: 16.7%.
In the case of `C#CCNC(=O)C1=C[C@@H](c2ccc(Br)cc2)C[C@@H](OCc2ccc(CO)cc2)O1`, the “activity change, negative = inhibition” value is reported as inactive: 0.683%.
For `COc1ccc(NC(=S)Nc2ncccc2C)cc1OC`, the Potency was inconclusive: 35.5 µM [falling, single point].
In the case of `CC(=O)c1sc(NC(=O)c2ccc(F)cc2)nc1-c1ccccc1`, the “activity change, negative = inhibition” value is reported as inactive: 6.65%.
With `N#Cc1ccccc1NC(=O)COc1ccc2c(c1)OCO2` the Potency was inconclusive: 17.8 µM [falling, partial curve].
With `CC(C)(C)OC(=O)NCCCC[C@H](NC(=O)c1nc[nH]c1C(=O)NCc1ccccc1)C(=O)OC(C)(C)C` the “activity change, negative = inhibition” value was inactive: -0.886%.
For `COc1cc(C(C)=O)ccc1OCCCN1CCC(Cc2ccccc2)CC1`, the “activity change, negative = inhibition” value was inactive: 2.52%.
For `COc1cc2c(cc1OC)C(C)N(C(=O)Nc1ccccc1)CC2` (stereo not drawn), the Potency was inconclusive: 25.1 µM [falling, partial curve, poor fit].
In the case of `O=C(CSc1nnc(CCc2ccccc2)n1-c1ccc(Cl)cc1)NCc1ccccc1`, the activity change, negative = inhibition is reported as inconclusive: -24.1%.
For `CSCc1nnc(NC(=O)c2ccc(S(=O)(=O)N(CC(C)C)CC(C)C)cc2)o1`, the activity change, negative = inhibition was inconclusive: 0.717%.
With `COc1ccc(NC(=S)N(CCCN2CCCCCC2)Cc2cccs2)cc1` the Potency was inconclusive: 12.6 µM [falling, partial curve, poor fit].
In the case of `Cc1ccc(C(=O)O)cc1NC(=O)C1=CSCCO1`, the “activity change, negative = inhibition” value is reported as inactive: -10.8%.
In the case of `Cc1nn(CCCC(=O)NCc2ccc(F)cc2)c(=O)c2nccn12`, the “activity change, negative = inhibition” value is reported as inactive: -14%.
With `O=C(Nc1nc2ccccc2[nH]1)c1ccc([N+](=O)[O-])cc1` the Potency was inconclusive: 5.62 µM [rising, single point].
In the case of `O=C(O)CSc1nc2ccc(C(=O)c3ccccc3)cc2[nH]1`, the activity change, negative = inhibition is reported as inconclusive: 14%.
With `O=C(/C=N/O)Nc1ccc(F)cc1` the activity change, negative = inhibition was inconclusive: -15.9%.
In the case of `COCCN1CCn2c(nc3cc(NC(=O)c4cccs4)ccc32)C1`, the Potency is reported as inconclusive: 18.4 µM [falling, partial curve].
For `Cc1cccc(N=CC=C2OC(C)(C)C(C)(C)O2)c1`, the “activity change, negative = inhibition” value was inactive: -0.911%.
In the case of `CCc1ccc(C2=NNC(=Nc3cccc(S(=O)(=O)N(C)C)c3)SC2)cc1`, the “activity change, negative = inhibition” value is reported as inactive: 3.37%.
With `CCOc1ncccc1C(=O)OCCCC(=O)c1ccc(Br)cc1` the “activity change, negative = inhibition” value was inactive: -7.8%.
For `Cc1sc(NC(=O)c2ccccc2F)c(CN2CCCCC2C)c1C` (stereo not drawn), the activity change, negative = inhibition was inconclusive: -10.4%.
For `COCCCNC(NC(=O)c1ccc(OC)cc1)C(Cl)(Cl)Cl` (stereo not drawn), the activity change, negative = inhibition was inconclusive: 2.35%.
For `Cc1c([N+](=O)[O-])c(C(=O)Nc2ccc3c(c2)OCCO3)nn1C`, the Potency was inconclusive: 29.1 µM [falling, single point].
In the case of `COc1ccc(Cl)cc1NC(=O)Cn1cnc2c1c(=O)n(C)c(=O)n2C`, the activity change, negative = inhibition is reported as inconclusive: 2.31%.
With `CSc1nc2ccc3nc(NC(=O)c4cccs4)sc3c2s1` the Potency was inconclusive: 35.5 µM [falling, single point].
In the case of `O=C(Nc1cccc(NS(=O)(=O)c2ccc(S(=O)(=O)NC3CC3)cc2)c1)c1ccccn1`, the activity change, negative = inhibition is reported as inconclusive: -7.75%.
In the case of `COc1ccc(NC(=O)Cn2cccc2)cc1Cl`, the activity change, negative = inhibition is reported as inconclusive: 1.06%.
With `Cc1sc2ncnc(N3CCN(Cc4ccccc4)CC3)c2c1-c1ccccc1` the “activity change, negative = inhibition” value was inactive: -4.21%.
In the case of `Cn1ccc2cc(-c3csc(N4CCC(C(N)=O)CC4)n3)ccc21`, the activity change, negative = inhibition is reported as inconclusive: -3.28%.
For `CC(=O)c1sc(NC(=O)c2c(F)cccc2F)nc1C`, the activity change, negative = inhibition was inconclusive: -5.37%.
With `Cc1ccc2nc(N3CCN(C(=O)c4ccco4)CC3)sc2c1` the activity change, negative = inhibition was inconclusive: 12.8%.
In the case of `CN(C)c1ccc(C(CNC(=O)c2ccccc2)c2c[nH]c3ccccc23)cc1` (stereo not drawn), the activity change, negative = inhibition is reported as inconclusive: -1.23%.
In the case of `O=C(CCl)Nc1cccc(S(=O)(=O)NC2=NCCCCC2)c1`, the Potency is reported as inconclusive: 11.6 µM [falling, partial curve].
With `Cn1ccc(C(=O)Oc2ccc(C(=O)Nc3ccc(F)cc3F)cc2)n1` the Potency was inconclusive: 7.94 µM [falling, partial curve, poor fit].
In the case of `CCn1cc2nc(SCC(=O)Nc3ccc(F)cc3F)n(Cc3ccccc3)c(=O)c2n1`, the activity change, negative = inhibition is reported as inconclusive: 2.46%.
In the case of `CC(C)CCNC(=O)C1(O)c2ccccc2NC(=O)N1c1ccc(Cl)cc1` (stereo not drawn), the activity change, negative = inhibition is reported as inconclusive: 11.9%.
In the case of `CC(C)(C)c1[nH]nc2c1C(c1ccoc1)C(C#N)=C(N)O2` (stereo not drawn), the activity change, negative = inhibition is reported as inconclusive: 6.42%.
For `Cc1cccc(C(=O)NC(=S)N2CCc3ccccc3C2)c1`, the activity change, negative = inhibition was inconclusive: 3.77%.
With `COc1ccc(CCNC(=O)c2cnc(Cl)c(Cl)c2)cc1` the activity change, negative = inhibition was inconclusive: -1.59%.
In the case of `Cc1cccc(NC(=O)c2ccc(COc3cccc4ccccc34)o2)n1`, the activity change, negative = inhibition is reported as inconclusive: -7.89%.
With `Cc1cc(NC(=O)/C=C/c2ccco2)ccc1NC(=O)c1ccccc1` the activity change, negative = inhibition was inconclusive: 30%.
In the case of `Cc1cc(C)c2oc(C(=O)Nc3ccc(S(=O)(=O)N4CCC(C)CC4)cc3)cc(=O)c2c1`, the “activity change, negative = inhibition” value is reported as inactive: 0.0341%.
In the case of `CCOC(=O)c1cc(=O)n2c(nc3ccccc32)[nH]1`, the Potency is reported as inconclusive: 20.6 µM [falling, single point].
For `CCOC(CCn1c(SCC(=O)Nc2cc(C)on2)nc2ccccc2c1=O)OCC`, the activity change, negative = inhibition was inconclusive: 1.48%.
For `CCN1C(=O)[C@H]2[C@@H](c3ccc(C)cc3)N3C(=O)N(c4cccc(Br)c4)C(=O)[C@@]3(CC(C)C)[C@H]2C1=O`, the activity change, negative = inhibition was inconclusive: 4.33%.
For `C(=C\c1nnc2c3ccccc3ncn12)/c1ccccc1`, the Potency was inconclusive: 20.6 µM [falling, single point].
For `COc1ccc2c3c([nH]c2c1)C1(NCC3)C(=O)Nc2ccccc21` (stereo not drawn), the activity change, negative = inhibition was inconclusive: -10.7%.
With `O=C(C1=C(O)C(=O)N(CCN2CCOCC2)C1c1ccccn1)c1cccs1` (stereo not drawn) the Potency was inconclusive: 20.6 µM [falling, single point].
For `CCOC(=O)c1ccn(-c2nc(-c3ccco3)cc(C(F)(F)F)n2)n1`, the activity change, negative = inhibition was inconclusive: 8.95%.
For `NS(=O)(=O)c1ccc(NC(=O)COC(=O)c2c3c(nc4ccccc24)/C(=C\c2ccc4c(c2)OCO4)CCC3)cc1`, the activity change, negative = inhibition was inconclusive: 7.38%.
With `Cc1ccc(NC(=O)c2ccc(OC(=O)COc3ccc(Cl)cc3C)cc2)cc1` the Potency was inconclusive: 5.17 µM [falling, partial curve].
For `CCc1ccc(C2=NN(CCC(=O)NC(C)CCc3ccccc3)C(=O)CC2)cc1` (stereo not drawn), the Potency was inconclusive: 11.2 µM [falling, partial curve, poor fit].
For `Cc1oc2c(O)c(O)ccc2c(=O)c1-c1ccc(Cl)cc1`, the activity change, negative = inhibition was inconclusive: 9.89%.
In the case of `CCCCCOC(=O)NCC(O)c1ccccc1` (stereo not drawn), the Potency is reported as inconclusive: 35.5 µM [rising, single point].
For `CCOc1ccc(-c2cn3ccccc3n2)cc1[N+](=O)[O-]`, the activity change, negative = inhibition was inconclusive: 0.16%.
For `O=C(c1ccccc1)c1c[nH]c(C(=O)NNc2cccc(Cl)n2)c1`, the activity change, negative = inhibition was inconclusive: -1.42%.
With `COC(=O)CCC(=O)c1oc2ccc(Cl)cc2c1NC(=O)CCCN1C(=O)c2ccccc2C1=O` the activity change, negative = inhibition was inconclusive: 26.3%.
With `O=C(CN1C(=O)c2ccccc2C1=O)Nc1cccc(Cl)c1` the “activity change, negative = inhibition” value was inactive: -0.32%.
With `CCN(CC(=O)Nc1c(F)cccc1F)C(=O)c1ccc2c(c1)S(=O)(=O)N=C1CCCCCN12` the activity change, negative = inhibition was inconclusive: -3.87%.
For `Cc1cc(C(=O)OC(C)C(=O)Nc2nc(-c3ccccc3)cs2)c(C)o1` (stereo not drawn), the activity change, negative = inhibition was inconclusive: 23.3%.
With `COc1ccc(N(C)S(=O)(=O)c2ccc(Cl)c(C(=O)NCCc3ccc(Cl)cc3)c2)cc1` the activity change, negative = inhibition was inconclusive: -2.64%.
In the case of `O=[N+]([O-])/C=C\c1ccc(N2CCCC2)c(F)c1`, the activity change, negative = inhibition is reported as inconclusive: 11.4%.
